Results are given in words; binding and its absence hold for the method and conditions named.
Target: T1, insoluble type I collagen fibers (UniProt P02453 162-1217; P02465 80-1117)
T1 construct: type I collagen, alpha-1(I) chain; type I collagen, alpha-2(I) chain; Triple-helical, insoluble fibres; also called insoluble collagen fibers; native collagen; source: bought: Sigma‐Aldrich
Experiment: collagen-binding assay (unbound protein in the filtrate by SDS/PAGE); protein (with BSA) incubated with insoluble type I collagen fibers in binding buffer (50 mM Tris/HCl, 0.2 M NaCl, 5 mM CaCl2, pH 7.5), room temperature, 30 min, 0.22 μm centrifugal filter unit; filtrate analysed by …; both purified

Sequences of proteins named here, by UniProt entry; tags and fusion partners are left off. A change or cut given only in a name is not applied to a line headed by its entry. Residues count along the entry.
UniProt P02453: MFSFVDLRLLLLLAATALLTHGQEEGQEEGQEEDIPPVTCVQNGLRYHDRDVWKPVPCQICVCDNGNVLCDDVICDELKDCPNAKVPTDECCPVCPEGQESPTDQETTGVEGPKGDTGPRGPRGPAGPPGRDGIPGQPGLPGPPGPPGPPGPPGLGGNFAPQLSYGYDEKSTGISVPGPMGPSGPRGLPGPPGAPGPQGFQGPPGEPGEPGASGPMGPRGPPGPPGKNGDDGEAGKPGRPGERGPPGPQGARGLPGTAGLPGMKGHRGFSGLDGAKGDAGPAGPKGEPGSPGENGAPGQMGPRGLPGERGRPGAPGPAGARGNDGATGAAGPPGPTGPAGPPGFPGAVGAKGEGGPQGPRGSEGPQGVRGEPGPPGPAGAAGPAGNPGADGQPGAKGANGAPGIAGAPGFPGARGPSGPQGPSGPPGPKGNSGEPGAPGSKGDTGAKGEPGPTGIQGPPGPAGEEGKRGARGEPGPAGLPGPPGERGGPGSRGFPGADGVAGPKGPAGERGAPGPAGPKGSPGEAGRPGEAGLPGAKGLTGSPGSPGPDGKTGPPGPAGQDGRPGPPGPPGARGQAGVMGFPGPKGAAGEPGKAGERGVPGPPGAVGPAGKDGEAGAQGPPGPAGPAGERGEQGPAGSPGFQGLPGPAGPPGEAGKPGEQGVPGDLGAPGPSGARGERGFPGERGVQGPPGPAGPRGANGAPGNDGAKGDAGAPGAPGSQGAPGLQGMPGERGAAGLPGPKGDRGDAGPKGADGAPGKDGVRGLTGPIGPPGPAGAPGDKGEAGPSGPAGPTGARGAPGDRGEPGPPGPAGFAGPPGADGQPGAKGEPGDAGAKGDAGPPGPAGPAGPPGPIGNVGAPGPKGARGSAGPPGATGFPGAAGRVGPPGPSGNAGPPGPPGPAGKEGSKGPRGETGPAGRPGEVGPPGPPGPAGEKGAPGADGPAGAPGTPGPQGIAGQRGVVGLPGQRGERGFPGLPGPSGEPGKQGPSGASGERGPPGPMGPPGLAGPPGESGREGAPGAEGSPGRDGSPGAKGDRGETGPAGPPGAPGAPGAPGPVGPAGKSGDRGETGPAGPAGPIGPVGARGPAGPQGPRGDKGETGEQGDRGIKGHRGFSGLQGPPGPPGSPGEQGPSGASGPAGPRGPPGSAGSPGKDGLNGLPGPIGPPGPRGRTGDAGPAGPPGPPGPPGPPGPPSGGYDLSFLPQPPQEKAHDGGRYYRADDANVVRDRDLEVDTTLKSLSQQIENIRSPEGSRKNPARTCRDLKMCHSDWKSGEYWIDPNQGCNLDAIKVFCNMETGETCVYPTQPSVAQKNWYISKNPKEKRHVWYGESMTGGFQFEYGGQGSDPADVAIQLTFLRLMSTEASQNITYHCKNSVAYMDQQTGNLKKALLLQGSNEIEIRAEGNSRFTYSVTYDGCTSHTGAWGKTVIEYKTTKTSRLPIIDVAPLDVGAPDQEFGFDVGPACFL
UniProt P02769, residues 25-607: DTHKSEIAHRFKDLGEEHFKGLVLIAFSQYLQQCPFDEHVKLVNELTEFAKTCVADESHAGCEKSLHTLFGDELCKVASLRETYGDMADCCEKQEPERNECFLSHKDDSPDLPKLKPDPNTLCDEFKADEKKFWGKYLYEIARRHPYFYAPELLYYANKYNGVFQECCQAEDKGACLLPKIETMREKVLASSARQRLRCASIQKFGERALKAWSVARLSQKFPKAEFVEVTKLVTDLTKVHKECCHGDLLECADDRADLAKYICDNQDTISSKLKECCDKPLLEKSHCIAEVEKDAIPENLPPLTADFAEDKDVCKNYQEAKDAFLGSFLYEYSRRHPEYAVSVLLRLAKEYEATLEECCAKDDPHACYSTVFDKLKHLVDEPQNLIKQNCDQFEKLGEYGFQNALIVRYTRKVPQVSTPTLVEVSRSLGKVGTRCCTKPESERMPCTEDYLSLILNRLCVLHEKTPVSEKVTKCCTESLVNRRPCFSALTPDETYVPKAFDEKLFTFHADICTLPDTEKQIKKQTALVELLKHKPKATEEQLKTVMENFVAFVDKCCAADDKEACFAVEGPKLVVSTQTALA

In the case of BSA (from UniProt P02769 25-607), the binding is reported as “no binding (tested: 0.2 mg·mL^−1)”.

Reference: article PMC6168687, “The C‐terminal segment of collagenase in Grimontia hollisae binds collagen to enhance collagenolysis” (FEBS Open Bio, 2018)
